Reference: patent US12703712B2, “Indenonaphthopyrans having trialkylsilyl and ethylenically unsaturated groups” (Transitions Optical, Ltd., priority 2021, dated 2026)

Test: Colour upon exposure to UV light, compound formulated into a coating composition
Settings: coating composition as described in Part 2 of U.S. Pat. No. 8,608,988 B2

Q: With `C=C(C)C(=O)OCC1CCCN(c2cc3c4c(c5c(c3cc2OC)OC(c2ccccc2)(c2ccc(N3CCOCC3)cc2)C=C5)C(C)(C)c2cc(-c3ccc(C(C)(C)C)cc3)ccc2-4)C1` (stereo not shown) [CE-3, 6-methoxy-7-((3-methacryloxymethyl)piperidin-1-yl)-11-(4-t-butylphenyl)-13,13-dimethyl-3-(4-morpholinophenyl)-3-phenyl-3H,13H-indeno[2′,3′:3,4]naphtho[1,2-b]pyran] as the compound, how does the “Color exhibited upon exposure to UV light” value read?
A: Its value is “dark purple”.

Q: With `C=C(C)C(=O)OCCOC(=O)CCC(=O)N1CCN(c2ccc(C3(c4ccccc4)C=Cc4c5c(c6cc(N7CCCCC7)c(OC)cc6c4O3)-c3ccccc3C5(C)C)cc2)CC1` (stereo not shown) [CE-2] as the compound, how does the “Color exhibited upon exposure to UV light” value read?
A: Its value is “purple”.

Q: With `C=C(C)C(=O)OCC1CCCN(c2cc3c4c(c5c(c3cc2OC)OC(c2ccc(N3CCOCC3)cc2)(c2ccc([Si](C)(C)C)cc2)C=C5)C(C)(C)c2cc(-c3ccc(C(C)(C)C)cc3)ccc2-4)C1` (stereo not shown) [Example 6, 6-methoxy-7-((3-methacryloxymethyl)piperidin-1-yl)-11-(4-t-butylphenyl)-13,13-dimethyl-3-(4-morpholinophenyl)-3-(4-trimethylsilylphenyl)-3H,13H-indeno[2′,3′: 3,4]naphtho[1,2-b]pyran] as the compound, how does the “Color exhibited upon exposure to UV light” value read?
A: The value was “dark purple”.

Q: With `C=C(C)C(=O)OCCOC(=O)CCC(=O)N1CCN(c2ccc(C3(c4ccccc4)C=Cc4c5c(c6cc(N7CCCCC7)c(OC)cc6c4O3)-c3ccc([Si](C)(C)C)cc3C5(C)C)cc2)CC1` (stereo not shown) [Example 5] as the compound, how does the “Color exhibited upon exposure to UV light” value read?
A: Its value is “purple”.
